Test results as given in PubChem BioAssay AID445 (National Center for Advancing Translational Sciences (NCATS), 2006).
The other results are listed elsewhere or left out. Shown are side measurements of this screen, not its main read-out; they come without a call. Compounds called inactive in the main read-out are mostly missing here. Potencies come from curve fits of mixed quality, noted in brackets.

Experiment: IkB Signaling
Conditions: ABC-DLBCL IkBa-CBG/CBR dual luciferase ratio (green luciferase fused to IkBa over red control in OCI-Ly3 lymphoma cells), 4 h
Method in brief: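 Luminescence ratio of IκBα-fused green versus native red beetle luciferase in OCI-Ly3 cells, 4 h post-doxycycline with compound; red signal alone, scaled from basal (0%) to zero light (-100%), flagged nonspecific or cytotoxic effects.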

[1] = measured here: control luc red channel unless noted
[2] = measured here: IkB-luc green channel
[3] = measured here: control luc red channel

## CN1CCN(S(=O)(=O)c2ccc(SCCOc3ccccc3)nc2)CC1
[1]
  AC50: 25.1 µM [falling, single point]

## COC(=O)c1ccc(Nc2nc(-c3ccc(C)cc3)nc3ccccc23)cc1
[1]
  AC50: 20 µM [falling, partial curve]

## COc1ccc(CNc2nc3c(c(=O)n(Cc4ccc(F)cc4)c(=O)n3C)n2C)cc1
[1]
  AC50: 6.31 µM [falling, partial curve]

## CC(=O)N1CCc2c(sc3c2c(=O)n(Cc2ccccc2)c(=O)n3Cc2cccc(Cl)c2)C1
[1]
  AC50: 31.6 µM [falling, single point]

## Cc1ccccc1Cn1cnc2c(oc3ccccc32)c1=O
[1]
  AC50: 0.501 µM [rising, full curve, poor fit]

## CC1=Nc2cc(C(=O)NC3CCC(C)CC3)ccc2Sc2c(C)ccc(C)c21 (centres undefined)
[1]
  AC50: 1 µM [rising, full curve]

## COc1cc(C(=O)N2CCc3c([nH]c4ccccc34)C2c2ccc(F)cc2)cc(OC)c1OC (centres undefined)
[1]
  AC50: 12.6 µM [falling, partial curve]

## O=C(Nc1ccc(NC(=O)C2CC2)nc1)c1ccccn1
[1]
  AC50: 10 µM [falling, partial curve]

## Cc1ccc(-n2nc(C(=O)NCc3ccc(F)cc3Cl)c3c4ccccc4n(C)c3c2=O)cc1
[1]
  AC50: 0.251 µM [rising, full curve, poor fit]

## CCc1ccc(-c2nc3cc(NC(=O)c4cc5ccccc5cc4OC)ccc3o2)cc1
[1]
  AC50: 3.98 µM [falling, partial curve]

## COc1ccc(Br)c(C(=O)Nc2cc3c(cc2N2CCCCC2)n(C)c(=O)c(=O)n3C)c1
[1]
  AC50: 25.1 µM [falling, single point]

## COc1cc(C2CC(=O)N(Cc3ccc(F)cc3)c3ccccc3S2)cc(OC)c1OC (centres undefined)
[1]
  AC50: 0.251 µM [falling, full curve, poor fit]

## COC(=O)c1ccccc1NC(=O)c1nc(S(=O)(=O)Cc2cccc(C)c2)ncc1Cl
[1]
  AC50: 7.94 µM [falling, partial curve]

## Cc1cccc(NC(=O)c2c(C)cc(C)nc2SCC(=O)Nc2c(C)cc(C)cc2C)c1
[1]
  AC50: 10 µM [falling, partial curve]

## OC(CN(c1ccccc1)c1ccccc1)Cn1cnc2ccccc21 (centres undefined)
[1]
  AC50: 12.6 µM [falling, partial curve]

## Cn1c(=O)oc2cc(S(=O)(=O)N3CCC(C(=O)NCc4ccc(F)cc4)CC3)ccc21
[1]
  AC50: 3.98 µM [falling, partial curve]

## CCNC(=O)NC(=O)COC(=O)CCCSc1nc2ccccc2[nH]1
[1]
  AC50: 7.94 µM [falling, partial curve]

## O=C(Nc1nnc(S(=O)(=O)N2CCCC2)s1)c1ccccc1Br
[1]
  AC50: 15.8 µM [falling, single point]

## CCOC(=O)c1ccc(NC(=O)CSc2nnc(CNC(=O)c3ccc(OC)cc3)n2CC)cc1
[1]
  AC50: 39.8 µM [falling, single point]

## COc1ccc(NC(=O)CC2C(=O)N(c3ccc(C)cc3)C(=O)N2Cc2ccc3c(c2)OCO3)cc1 (centres undefined)
[1]
  AC50: 7.94 µM [falling, single point]

## COc1ccc(N2CCN(S(=O)(=O)c3ccc4c(c3)CCCN4C(C)=O)CC2)cc1
[1]
  AC50: 15.8 µM [falling, partial curve, poor fit]

## CCC(C)n1c(SCc2c(F)cccc2Cl)nc2ccsc2c1=O (centres undefined)
[1]
  AC50: 25.1 µM [falling, single point]

## COc1cc(N2C(=O)CSC23C(=O)N(Cc2ccc(C)cc2)c2ccccc23)cc(OC)c1OC (centres undefined)
[1]
  AC50: 25.1 µM [falling, single point]

## Cc1ccc(C)c(CN2C(=O)c3ccccc3S(=O)c3ccc(C(=O)N4CCN(c5ccccc5F)CC4)cc32)c1 (centres undefined)
[1]
  AC50: 20 µM [falling, partial curve]

## CC(C)(C)OC(=O)N1CCC(c2c(C(=O)NCCCN3CCc4ccccc4C3)cnn2-c2ccccc2)CC1
[1]
  AC50: 20 µM [falling, partial curve]

## COc1ccc(-c2c(C)c3cc(OC(=O)N4CCOCC4)ccc3oc2=O)cc1
[1]
  AC50: 6.31 µM [falling, single point]

## O=C(Nc1nc2ccc(Cl)cc2s1)c1ccc(Br)o1
[1]
  AC50: 1.58 µM [falling, full curve]

## O=C(Cn1cc(SCc2ccccc2)c2ccccc21)N1CCCCC1
[1]
  AC50: 25.1 µM [falling, single point]

## CCc1ccc(CNC(=O)CN(c2ccc(C)cc2)S(=O)(=O)N(C)C)cc1
[1]
  AC50: 12.6 µM [falling, single point]

## N#Cc1c(-n2ncnc2-c2ccc(Br)cc2)sc2c1CCCCC2
[1]
  AC50: 0.251 µM [falling, full curve]

## CSc1ccc(CNC(=O)C2CCN(c3nnc(-n4cccc4CNc4ccc(C)cc4)s3)CC2)cc1
[1]
  AC50: 0.0316 µM [falling, full curve, poor fit]

## CCOC(=O)c1c(NC(=O)CSc2n[nH]c(-c3ccco3)n2)sc(C)c1C
[1]
  AC50: 25.1 µM [falling, single point]

## O=c1oc(-c2cccs2)nc2c1cnn2-c1ccccc1
[1]
  AC50: 7.94 µM [falling, full curve, poor fit]

## O=C(COc1ccc([N+](=O)[O-])cc1)NCC1(N2CCOCC2)CCCCC1
[1]
  AC50: 1.26 µM [falling, partial curve]

## Cc1cnc(CNc2ncnc3ccc(-c4c(C)noc4C)cc23)cn1
[1]
  AC50: 5.01 µM [rising, partial curve] [measured here: IkB-luc green channel]

## O=C(NCc1ccco1)C1CCCN(S(=O)(=O)c2cccc3nonc23)C1 (centres undefined)
[2]
  AC50: 15.8 µM [rising, partial curve]
[3]
  AC50: 15.8 µM [falling, partial curve]

## CC(C)CC(=O)Nc1ccc(S(=O)(=O)Nc2cc3c(cc2N2CCOCC2)n(C)c(=O)c(=O)n3C)cc1
[1]
  AC50: 31.6 µM [falling, single point]

## O=C(CCc1cn(Cc2ccccc2Cl)c2ccccc12)NC1CCCCC1
[1]
  AC50: 2.51 µM [falling, full curve]

## CC(C)c1ccc(NC(=O)C2CCN(c3nc(-c4ccc(C(C)C)cc4)no3)CC2)cc1
[1]
  AC50: 1 µM [falling, full curve, poor fit]

## CCCCc1nc2ccccc2n2c(-c3ccc(OC)cc3)c3c(=O)n(C)c(=O)n(C)c3c12
[1]
  AC50: 39.8 µM [falling, single point]

## Cc1c(C(=O)N2CCC(C)CC2)c(S(=O)(=O)NCc2ccc(Br)cc2)c(C)n1C
[1]
  AC50: 39.8 µM [falling, single point]

## COc1ccc(CNC(=O)c2cc(-c3cccc(Cl)c3)on2)cc1
[1]
  AC50: 25.1 µM [falling, partial curve]

## Cc1nc2sccn2c(=O)c1CCN1CCC(=C(c2ccc(F)cc2)c2ccc(F)cc2)CC1
[2]
  AC50: 25.1 µM [falling, partial curve, poor fit]
[3]
  AC50: 25.1 µM [falling, partial curve]

## O=C(Cc1ccccc1F)Nc1nc(-c2cccs2)cs1
[1]
  AC50: 12.6 µM [falling, partial curve]

## Fc1ccc(-c2cc(-c3nc(-c4ccccc4)no3)[nH]n2)cc1
[1]
  AC50: 0.0316 µM [falling, full curve]

## CCOC(=O)c1cc(-c2ccc(F)cc2)n(CC(=O)Nc2nccs2)c1C
[1]
  AC50: 12.6 µM [falling, partial curve]

## Cc1cccc(N2CCN(CCNC(=O)c3cc4c(s3)CS(=O)(=O)C4)CC2)c1C
[1]
  AC50: 25.1 µM [falling, partial curve]

## COc1ccccc1N1CCN(CCNC(=O)Nc2cccc(C)c2C)CC1
[1]
  AC50: 20 µM [falling, partial curve]

## Cc1ccccc1CNC(=O)c1cccc(NC(=O)c2nsc3ccccc23)c1
[1]
  AC50: 15.8 µM [falling, partial curve]

## COc1ccccc1OCC(=O)Nc1nnc(-c2ccco2)s1
[1]
  AC50: 10 µM [falling, partial curve]

## COc1ccccc1C1=NS(=O)(=O)N(C)C(C(=O)Nc2cc(OC)c(OC)c(OC)c2)=C1
[1]
  AC50: 1.58 µM [falling, partial curve]

## CC(C)Cn1cc(NC(=O)NCc2ccccc2)c2ccccc2c1=O
[1]
  AC50: 0.794 µM [rising, full curve, poor fit]

## Cc1nc2nc(SCC(=O)Nc3cccc(Cl)c3)nn2c(C)c1Cc1ccccc1
[1]
  AC50: 12.6 µM [falling, partial curve]

## CN(C(=O)CSc1nc2ccc(NC(=O)c3ccccc3F)cc2s1)c1ccccc1
[1]
  AC50: 10 µM [falling, partial curve]

## CCCCn1cc(S(=O)(=O)c2ccc(OCC)cc2)c(=O)c2cc(OC)c(OC)cc21
[1]
  AC50: 31.6 µM [falling, single point]

## Cc1cc2n(n1)C(c1ccc(O)cc1)Nc1ccccc1-2 (centres undefined)
[1]
  AC50: 20 µM [falling, partial curve]

## CCOc1ccc(CNC(=O)Cn2nc(C)n3cccc3c2=O)cc1
[1]
  AC50: 10 µM [falling, partial curve]

## Cc1ccc(NC(=O)CN(CCc2ccccc2)S(=O)(=O)c2ccccc2)c(C)c1
[1]
  AC50: 39.8 µM [falling, single point]

## COc1cc(NC(=O)c2noc3c2CCC3)c(OC)cc1Cl
[1]
  AC50: 20 µM [falling, partial curve]

## Cc1cccc(/N=C/c2c(O)c3ccccc3oc2=O)n1
[1]
  AC50: 5.01 µM [falling, partial curve]

## COCCN1Cc2cccc(C(=O)Nc3ccc(C)c(F)c3)c2C1=O
[1]
  AC50: 3.98 µM [rising, partial curve]

## Cc1cc(C)cc(NC(=O)C(=O)NCC(c2ccc3c(c2)OCO3)N2CCOCC2)c1 (centres undefined)
[1]
  AC50: 1.58 µM [rising, partial curve]
